Results deposited as PubChem BioAssay AID1508597 (Cure First, 2020).

Screen: 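Knock-downs altering ovarian cancer cell survival with or without PARP inhibitor rucaparib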 (primary screen)
Cells: human ovarian carcinoma lines grown from tumours: OCI-P5x (papillary serous) and OCI-C5x (clear cell)
Knock-down reagent: siRNA pool against human genes, 1.25 pmol siRNA per well
Timing: 72 h or 96 h, depending on the cell culture
Challenge: rucaparib 20 µM (about IC30) or vehicle, present until read-out
Rucaparib or vehicle: Vehicle
Cell line: OCI-C5x (clear cell)
Read-out: 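Luminescent ATP-based viability assay read 72 or 96 h after transfection, depending on culture, given as normalised percent viability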
Reading the numbers: viability, normalised: higher = more viable cells remaining
Active means: 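a well counts as a hit if its normalised viability is under 80 percent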
Meaning of the calls: active = viability under 80%; inactive = viability 80% or more
Shown is an unselected part of the about 2,100 reagents, under one of the conditions tested. 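Calls flag viability under 80% in either arm, not effects specific to rucaparib; the reference for percent is not stated.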 Unmarked entries are inactive. Reagent sequences are not shown. Not stated in the record: the 100% reference.

ITPKA, technical replicate 1 — viability, normalised (%) = 44.8 (active)
ITPKA, technical replicate 2 — viability, normalised (%) = 40.5 (active)
ITPKA, technical replicate 3 — viability, normalised (%) = 34.7 (active)
ELP4, technical replicate 1 — viability, normalised (%) = 36.6 (active)
ELP4, technical replicate 2 — viability, normalised (%) = 73.1 (active)
ELP4, technical replicate 3 — viability, normalised (%) = 52.9 (active)
PRKAR1B, technical replicate 1 — viability, normalised (%) = 47.4 (active)
PRKAR1B, technical replicate 2 — viability, normalised (%) = 47.5 (active)
PRKAR1B, technical replicate 3 — viability, normalised (%) = 47.9 (active)
PRKAG3, technical replicate 1 — viability, normalised (%) = 56.8 (active)
PRKAG3, technical replicate 2 — viability, normalised (%) = 71.3 (active)
PRKAG3, technical replicate 3 — viability, normalised (%) = 49.4 (active)
SETD2, technical replicate 1 — viability, normalised (%) = 48.9 (active)
SETD2, technical replicate 2 — viability, normalised (%) = 45.2 (active)
SETD2, technical replicate 3 — viability, normalised (%) = 44.3 (active)

3 entries already listed, sorted by “viability, normalised (%)”, high to low:
ELP4, technical replicate 2 — viability, normalised (%) = 73.1 (active)
ELP4, technical replicate 3 — viability, normalised (%) = 52.9 (active)
ELP4, technical replicate 1 — viability, normalised (%) = 36.6 (active)

More results follow:
AK7, technical replicate 1 — viability, normalised (%) = 51.5 (active)
AK7, technical replicate 2 — viability, normalised (%) = 54.2 (active)
AK7, technical replicate 3 — viability, normalised (%) = 44 (active)
ESR1, technical replicate 1 — viability, normalised (%) = 59.9 (active)
ESR1, technical replicate 2 — viability, normalised (%) = 63.9 (active)
ESR1, technical replicate 3 — viability, normalised (%) = 63.5 (active)
DYRK4, technical replicate 1 — viability, normalised (%) = 121
DYRK4, technical replicate 2 — viability, normalised (%) = 68.2 (active)
DYRK4, technical replicate 3 — viability, normalised (%) = 68 (active)
MAP2K4, technical replicate 1 — viability, normalised (%) = 72.2 (active)
MAP2K4, technical replicate 2 — viability, normalised (%) = 41.6 (active)
MAP2K4, technical replicate 3 — viability, normalised (%) = 60.1 (active)
STK32A, technical replicate 1 — viability, normalised (%) = 70.5 (active)
STK32A, technical replicate 2 — viability, normalised (%) = 56.6 (active)
STK32A, technical replicate 3 — viability, normalised (%) = 50.6 (active)
CYP7A1, technical replicate 1 — viability, normalised (%) = 28.7 (active)
CYP7A1, technical replicate 2 — viability, normalised (%) = 39.2 (active)
CYP7A1, technical replicate 3 — viability, normalised (%) = 42.1 (active)
